Test results published in article PMC11066007, “CORVET-specific subunit levels determine the balance between HOPS/CORVET endosomal tethering complexes” (Scientific Reports, 2024).
These are yes or no findings as the source states them, for the method shown. In cells and extracts the contact can be indirect. Some entries that bind do so weakly or less than the wild type. Where a sequence is shown, tags or fusion partners need not be part of it.

T1: VPS41-FLAG (human, UniProt P49754 1-854)
T1 construct: VPS41, human, HOPS-specific subunit; DNA region encoding the full-length protein fused with a FLAG tag; The label puts FLAG after the name, but the methods say N-terminal tags were used for VPS41 and VPS39; also called HOPS-specific VPS41; source: HEK293, stably transfected (pCMV3), in lysate; not shown: FLAG, N-terminal, kept
T1 sequence (looked up): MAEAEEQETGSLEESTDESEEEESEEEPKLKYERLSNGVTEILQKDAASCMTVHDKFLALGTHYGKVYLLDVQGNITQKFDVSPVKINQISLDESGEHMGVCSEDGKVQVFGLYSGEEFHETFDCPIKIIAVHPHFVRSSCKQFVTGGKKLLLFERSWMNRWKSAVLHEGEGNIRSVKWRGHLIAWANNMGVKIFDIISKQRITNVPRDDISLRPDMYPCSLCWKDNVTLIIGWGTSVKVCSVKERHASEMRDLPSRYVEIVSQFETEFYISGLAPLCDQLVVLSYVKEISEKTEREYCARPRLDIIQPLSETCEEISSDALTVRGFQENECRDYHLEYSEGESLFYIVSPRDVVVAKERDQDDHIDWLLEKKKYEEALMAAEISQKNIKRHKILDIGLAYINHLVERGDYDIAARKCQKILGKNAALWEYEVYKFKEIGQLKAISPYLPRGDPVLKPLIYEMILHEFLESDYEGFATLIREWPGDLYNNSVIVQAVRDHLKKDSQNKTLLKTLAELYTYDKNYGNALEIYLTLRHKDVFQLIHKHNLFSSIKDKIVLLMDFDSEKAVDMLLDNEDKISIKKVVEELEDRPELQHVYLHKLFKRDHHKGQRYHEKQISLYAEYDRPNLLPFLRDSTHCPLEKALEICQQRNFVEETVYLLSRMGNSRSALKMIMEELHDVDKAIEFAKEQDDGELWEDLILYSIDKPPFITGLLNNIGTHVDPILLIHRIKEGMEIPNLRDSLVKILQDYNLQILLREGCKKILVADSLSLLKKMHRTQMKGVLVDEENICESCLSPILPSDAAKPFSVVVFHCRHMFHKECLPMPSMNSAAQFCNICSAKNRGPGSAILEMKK

T2: Tgfbrap1-FLAG (human, UniProt Q8WUH2 1-860)
T2 construct: Tgfbrap1, human, CORVET-specific subunit; DNA region encoding the full-length protein fused with a FLAG tag; also called CORVET-specific Tgfbrap1; not shown: FLAG, C-terminal, kept
T2 sequence (looked up): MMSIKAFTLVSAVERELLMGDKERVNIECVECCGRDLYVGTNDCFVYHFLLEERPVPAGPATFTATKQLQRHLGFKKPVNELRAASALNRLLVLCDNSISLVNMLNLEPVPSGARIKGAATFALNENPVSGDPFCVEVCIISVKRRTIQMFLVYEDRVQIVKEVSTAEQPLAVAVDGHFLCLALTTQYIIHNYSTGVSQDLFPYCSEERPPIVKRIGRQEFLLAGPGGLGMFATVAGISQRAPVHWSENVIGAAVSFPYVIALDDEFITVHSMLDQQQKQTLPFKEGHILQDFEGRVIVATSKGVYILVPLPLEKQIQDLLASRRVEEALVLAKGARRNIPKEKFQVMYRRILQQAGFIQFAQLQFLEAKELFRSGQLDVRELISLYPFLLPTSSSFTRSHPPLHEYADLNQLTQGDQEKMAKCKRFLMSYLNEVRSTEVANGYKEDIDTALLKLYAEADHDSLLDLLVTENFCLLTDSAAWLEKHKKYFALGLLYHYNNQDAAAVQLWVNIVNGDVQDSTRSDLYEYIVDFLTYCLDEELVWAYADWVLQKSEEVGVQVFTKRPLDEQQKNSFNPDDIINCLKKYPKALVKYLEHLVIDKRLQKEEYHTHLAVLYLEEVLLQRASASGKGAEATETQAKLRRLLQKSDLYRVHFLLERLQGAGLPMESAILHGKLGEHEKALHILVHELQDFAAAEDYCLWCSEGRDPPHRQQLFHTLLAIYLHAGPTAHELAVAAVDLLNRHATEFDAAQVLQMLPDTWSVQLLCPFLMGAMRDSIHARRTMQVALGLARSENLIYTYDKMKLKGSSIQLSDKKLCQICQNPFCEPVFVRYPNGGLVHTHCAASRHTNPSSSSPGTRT


Experiments:
VPS41-FLAG = biological target: T1, VPS41-FLAG; experiment: co-IP; anti-FLAG beads on total lysates of HEK293 cells stably transfected with a FLAG-tagged specific subunit, with or without transient overexpression of the counterpart subunit (control: pCMV); endogenous VPS11 and VPS18 detected by western blot, densitometry with ImageJ; lysis buffer 50 mM TRIS-HCl pH 7.5, 150 mM NaCl, 1% Triton X-100, 5 mM EDTA; 1.5 h at 4 °C
Tgfbrap1-FLAG [1] = biological target: T2, Tgfbrap1-FLAG; experiment: as above
Tgfbrap1-FLAG [2] = biological target: T2, Tgfbrap1-FLAG; experiment: co-IP; anti-FLAG beads on lysates of HEK293 cells overexpressing a FLAG-tagged subunit together with untagged VPS8 or VPS41-HA; eluates analysed by western blot; lysis buffer 50 mM TRIS-HCl pH 7.5, 150 mM NaCl, 1% Triton X-100, 5 mM EDTA; 1.5 h at 4 °C

Binder | binding (VPS41-FLAG) | binding (Tgfbrap1-FLAG [1]) | binding (Tgfbrap1-FLAG [2])
VPS11 (natural protein, human (endogenous in HEK293), UniProt Q9H270 1-941, looked up, VPS11, shared class C core subunit of HOPS and CORVET, detected by anti-VPS11 western blot in anti-FLAG precipitates; also called core subunit VPS11; source: endogenous, HEK293 lysate) MAAYLQWRRFVFFDKELVKEPLSNDGAAPGATPASGSAASKFLCLPPGITVCDSGRGSLVFGDMEGQIWFLPRSLQLTGFQAYKLRVTHLYQLKQHNILASVGEDEEGINPLVKIWNLEKRDGGNPLCTRIFPAIPGTEPTVVSCLTVHENLNFMAIGFTDGSVTLNKGDITRDRHSKTQILHKGNYPVTGLAFRQAGKTTHLFVVTTENVQSYIVSGKDYPRVELDTHGCGLRCSALSDPSQDLQFIVAGDECVYLYQPDERGPCFAFEGHKLIAHWFRGYLIIVSRDRKVSPKSEFTSRDSQSSDKQILNIYDLCNKFIAYSTVFEDVVDVLAEWGSLYVLTRDGRVHALQEKDTQTKLEMLFKKNLFEMAINLAKSQHLDSDGLAQIFMQYGDHLYSKGNHDGAVQQYIRTIGKLEPSYVIRKFLDAQRIHNLTAYLQTLHRQSLANADHTTLLLNCYTKLKDSSKLEEFIKKKSESEVHFDVETAIKVLRQAGYYSHALYLAENHAHHEWYLKIQLEDIKNYQEALRYIGKLPFEQAESNMKRYGKILMHHIPEQTTQLLKGLCTDYRPSLEGRSDREAPGCRANSEEFIPIFANNPRELKAFLEHMSEVQPDSPQGIYDTLLELRLQNWAHEKDPQVKEKLHAEAISLLKSGRFCDVFDKALVLCQMHDFQDGVLYLYEQGKLFQQIMHYHMQHEQYRQVISVCERHGEQDPSLWEQALSYFARKEEDCKEYVAAVLKHIENKNLMPPLLVVQTLAHNSTATLSVIRDYLVQKLQKQSQQIAQDELRVRRYREETTRIRQEIQELKASPKIFQKTKCSICNSALELPSVHFLCGHSFHQHCFESYSESDADCPTCLPENRKVMDMIRAQEQKRDLHDQFQHQLKCSNDSFSVIADYFGRGVFNKLTLLTDPPTARLTSSLEAGLQRDLLMHSRRGT | binds | binds | –
VPS8 (untagged) (protein, UniProt Q8N3P4 1-1428) MENEPDHENVEQSLCAKTSEEELNKSFNLEASLSKFSYIDMDKELEFKNDLIDDKEFDIPQVDTPPTLESILNETDDEDESFILEDPTLLNIDTIDSHSYDTSSVASSDSGDRTNLKRKKKLPDSFSLHGSVMRHSLLKGISAQIVSAADKVDAGLPTAIAVSSLIAVGTSHGLALIFGKDQNQALRLCLGSTSVGGQYGAISALSINNDCSRLLCGFAKGQITMWDLASGKLLRSITDAHPPGTAILHIKFTDDPTLAICNDSGGSVFELTFKRVMGVRTCESRCLFSGSKGEVCCIEPLHSKPELKDHPITQFSLLAMASLTKILVIGLKPSLKVWMTFPYGRMDPSSVPLLAWHFVAVQNYVNPMLAFCRGDVVHFLLVKRDESGAIHVTKQKHLHLYYDLINFTWINSRTVVLLDSVEKLHVIDRQTQEELETVEISEVQLVYNSSHFKSLATGGNVSQALALVGEKACYQSISSYGGQIFYLGTKSVYVMMLRSWRERVDHLLKQDCLTEALALAWSFHEGKAKAVVGLSGDASKRKAIVADRMVEILFHYADRALKKCPDQGKIQVMEQHFQDMVPVIVDYCLLLQRKDLLFSQMYDKLSENSVAKGVFLECLEPYILSDKLVGITPQVMKDLIVHFQDKKLMENVEALIVHMDITSLDIQQVVLMCWENRLYDAMIYVYNRGMNEFISPMEKLFRVIAPPLNAGKTLTDEQVVMGNKLLVYISCCLAGRAYPLGDIPEDLVPLVKNQVFEFLIRLHSAEASPEEEIYPYIRTLLHFDTREFLNVLALTFEDFKNDKQAVEYQQRIVDILLKVMVENSDFTPSQVGCLFTFLARQLAKPDNTLFVNRTLFDQVLEFLCSPDDDSRHSERQQVLLELLQAGGIVQFEESRLIRMAEKAEFYQICEFMYEREHQYDKIIDCYLRDPLREEEVFNYIHNILSIPGHSAEEKQSVWQKAMDHIEELVSLKPCKAAELVATHFSGHIETVIKKLQNQVLLFKFLRSLLDPREGIHVNQELLQISPCITEQFIELLCQFNPTQVIETLQVLECYRLEETIQITQKYQLHEVTAYLLEKKGDIHGAFLIMLERLQSKLQEVTHQGENTKEDPSLKDVEDTMVETIALCQRNSHNLNQQQREALWFPLLEAMMAPQKLSSSAIPHLHSEALKSLTMQVLNSMAAFIALPSILQRILQDPVYGKGKLGEIQGLILGMLDTFNYEQTLLETTTSLLNQDLHWSLCNLRASVTRGLNPKQDYCSICLQQYKRRQEMADEIIVFSCGHLYHSFCLQNKECTVEFEGQTRWTCYKCSSSNKVGKLSENSSEIKKGRITPSQVKMSPSYHQSKGDPTAKKGTSEPVLDPQQIQAFDQLCRLYRGSSRLALLTELSQNRSSESYRPFSGSQSAPAFNSIFQNENFQLQLIPPPVTED | – | – | binds
VPS18 (natural protein, human (endogenous in HEK293), UniProt Q9P253 1-973, looked up, VPS18, shared class C core subunit of HOPS and CORVET, detected by anti-VPS18 western blot in anti-FLAG precipitates; also called core subunit VPS18; source: endogenous, HEK293 lysate) MASILDEYENSLSRSAVLQPGCPSVGIPHSGYVNAQLEKEVPIFTKQRIDFTPSERITSLVVSSNQLCMSLGKDTLLRIDLGKANEPNHVELGRKDDAKVHKMFLDHTGSHLLIALSSTEVLYVNRNGQKVRPLARWKGQLVESVGWNKALGTESSTGPILVGTAQGHIFEAELSASEGGLFGPAPDLYFRPLYVLNEEGGPAPVCSLEAERGPDGRSFVIATTRQRLFQFIGRAAEGAEAQGFSGLFAAYTDHPPPFREFPSNLGYSELAFYTPKLRSAPRAFAWMMGDGVLYGALDCGRPDSLLSEERVWEYPEGVGPGASPPLAIVLTQFHFLLLLADRVEAVCTLTGQVVLRDHFLEKFGPLKHMVKDSSTGQLWAYTERAVFRYHVQREARDVWRTYLDMNRFDLAKEYCRERPDCLDTVLAREADFCFRQRRYLESARCYALTQSYFEEIALKFLEARQEEALAEFLQRKLASLKPAERTQATLLTTWLTELYLSRLGALQGDPEALTLYRETKECFRTFLSSPRHKEWLFASRASIHELLASHGDTEHMVYFAVIMQDYERVVAYHCQHEAYEEALAVLARHRDPQLFYKFSPILIRHIPRQLVDAWIEMGSRLDARQLIPALVNYSQGGEVQQVSQAIRYMEFCVNVLGETEQAIHNYLLSLYARGRPDSLLAYLEQAGASPHRVHYDLKYALRLCAEHGHHRACVHVYKVLELYEEAVDLALQVDVDLAKQCADLPEEDEELRKKLWLKIARHVVQEEEDVQTAMACLASCPLLKIEDVLPFFPDFVTIDHFKEAICSSLKAYNHHIQELQREMEEATASAQRIRRDLQELRGRYGTVEPQDKCATCDFPLLNRPFYLFLCGHMFHADCLLQAVRPGLPAYKQARLEELQRKLGAAPPPAKGSARAKEAEGGAATAGPSREQLKADLDELVAAECVYCGELMIRSIDRPFIDPQRYEEEQLSWL | binds | binds | –
